The campaign covered roughly 300,000 compounds. About 3,700 (1.2%) were called active. The inconclusive results got no clear call from the source; some entries with a clear call stand among them for comparison. Calls come from the whole dose curve; tested in HEK293 cells. Potencies beside an inconclusive call are fits to weak or partial responses and may not hold up.
experiment: qHTS for Inhibitors of binding or entry into cells for Lassa Virus; settings: Lassa virus pseudotype entry inhibition, cell reporter; activity change, negative = inhibition: at 37.9 µM (top of the series) unless noted; note: nearly all actives have a fitted effect of over 50% in size
% is set by controls: 0 for no effect and ±100 for the full control effect; potency is the fitted concentration of half-maximal effect.

Row | SMILES | activity change, negative = inhibition | Potency
1 | O=C(NC(=S)NCC1CCCO1)c1ccc([N+](=O)[O-])cc1 (stereo not given) | inactive: 0.707% | –
2 | CC(C)CNS(=O)(=O)c1ccc(NC(=O)Cn2nc(-c3ccc(F)cc3)ccc2=O)cc1 | – | inconclusive: 13 µM [inhibitor, partial curve, poor fit]
3 | CCN(CC)C(=O)Cn1cc(C(=O)C(=O)N2CCN(c3ccc([N+](=O)[O-])cc3)CC2)c2ccccc21 | – | inconclusive: 15.8 µM [inhibitor, single point]
4 | COc1ccc(CSCC(=O)Nc2ccccc2)cc1[N+](=O)[O-] | – | inconclusive: 11.2 µM [inhibitor, partial curve, poor fit]
5 | COc1ccc(-c2cc(C(F)(F)F)n3nc(C(=O)N4CCCCC4)cc3n2)cc1OC | – | inconclusive: 35.5 µM [inhibitor, single point]
6 | COc1cn(CC(=O)Nc2cc(C)ccc2C)c(CN2CCCCC2)cc1=O | – | inconclusive: 6.31 µM [inhibitor, single point]
7 | O=C(O)c1cccc(N/N=C/c2cc(Br)cc(Br)c2O)c1 | inactive: 11.9% | –
8 | CCOC(=O)N1CCN(CC(O)COCc2ccc(Cl)cc2)CC1 (stereo not given) | – | inconclusive: 7.94 µM [inhibitor, partial curve, poor fit]
9 | CCOC(=O)c1cc2c(ccn2C)n1CC(=O)N(Cc1ccccc1)c1ccccc1 | – | inconclusive: 13 µM [inhibitor, partial curve, poor fit]
10 | Cc1ccc(Nc2c(-c3ccc(N4CCOCC4)cc3)nc3cnccn23)cc1 | – | inconclusive: 35.5 µM [inhibitor, single point]
11 | COc1ccc(/C=C/CN2CCCC(CO)(Cc3cccc(Cl)c3)C2)cc1 (stereo not given) | – | active: 10 µM
12 | COc1ccc2c(c1)C(=O)[C@@H](OC(=O)NCc1ccc3c(c1)OCO3)[C@H](c1ccc(OC)c(Br)c1)O2 | – | inconclusive: 20.6 µM [inhibitor, partial curve, poor fit]
13 | O=c1c2ccccc2nc(SCc2nnc(-c3ccccc3)o2)n1-c1ccccc1 | – | inconclusive: 23.1 µM [inhibitor, partial curve, poor fit]
14 | CC(C)CC(c1nnnn1Cc1ccco1)N1CCN(C2CCCC2)CC1 (stereo not given) | – | inconclusive: 12.6 µM [activator, single point]
15 | CNC(=O)C1CCC(Cn2c(=O)c3sccc3n(CC(=O)Nc3cc(F)ccc3F)c2=O)CC1 (stereo not given) | inactive: 13.5% [at 46.1 µM] | –
16 | CC(C)CCN(C(=O)c1csnn1)C(C(=O)NC1CCCCC1)c1ccc(F)cc1 (stereo not given) | – | inconclusive: 1.26 µM [inhibitor, single point]
17 | CC(=O)Nc1cccc(NC(=O)CSc2cn(CC(=O)N3CCCCCC3)c3ccccc23)c1 | inactive: -28.6% [at 46.1 µM] | –
18 | CCOc1ccc(-c2csc(Cn3c(CN4CCN(C)CC4)nc4ccccc4c3=O)n2)cc1 | – | inconclusive: 11.2 µM [inhibitor, partial curve, poor fit]
19 | CN(C(=O)CN1C(=O)NC2(CCc3ccccc32)C1=O)C1CCS(=O)(=O)C1 (stereo not given) | – | inconclusive: 15.8 µM [activator, single point]
20 | CCOC(=O)c1c(NC(=O)c2cccc([N+](=O)[O-])c2C(=O)O)sc2c1CCCC2 | – | inconclusive: 35.5 µM [activator, single point]
21 | COc1ccc(CNC(=O)C(c2cccs2)N(Cc2ccco2)C(=O)Cc2cccs2)cc1 (stereo not given) | – | inconclusive: 11.2 µM [inhibitor, partial curve]
22 | CC(=O)Nc1ccc(NC(=O)c2ccccc2-n2cnnn2)cc1 | inactive: -3.86% | –
23 | O=C(Cc1ccccc1F)Nc1nc(-c2cccnc2)cs1 | inactive: -19.8% | –

Row | SMILES | activity change, negative = inhibition | Potency
24 | NC(=S)NN=C1CCCCCCCCCC1 | inactive: -15.9% | –
25 | O=C(Nc1ccccc1C(F)(F)F)c1cc2ccccn2n1 | – | inconclusive: 7.08 µM [activator, partial curve, poor fit]
26 | Nc1nc(Nc2ccccc2)nc2ccccc12 | – | inconclusive: 31.6 µM [inhibitor, single point]
27 | CCCC(=O)Nc1ccc(Sc2ccc([N+](=O)[O-])cc2)cc1 | – | active: 10 µM
28 | O=c1cc(Cc2ccccc2)[nH]c(=S)[nH]1 | inactive: 4% | –
29 | O=C(NNC1CC(=O)N(c2ccc(Br)cc2)C1=O)c1cccnc1 (stereo not given) | – | inconclusive: 35.5 µM [inhibitor, single point]
30 | O=c1[nH]c(N/N=C/c2ccccc2Br)nnc1-c1ccccc1 | inactive: 9.23% | –
31 | CCC(=O)c1ccc(OCC(=O)Nc2ccccc2C(=O)N2CCCCC2)cc1 | – | inconclusive: 35.5 µM [inhibitor, single point]
32 | O=S1(=O)c2ccc(Br)cc2N2CCC[C@@H]2CN1C1CC1 | – | inconclusive: 0.0141 µM [activator, full curve, poor fit]
33 | COc1ccc(NCc2nnc3n2CCCCC3)c(OC)c1 | inactive: -2.71% [at 46.1 µM] | –
34 | CCOC(=O)N(NC(=O)C(O)(c1ccccc1)c1ccccc1)c1ccccc1 | inactive: -13.3% | –
35 | O=C(CCCNS(=O)(=O)c1ccc(Cl)c(Cl)c1)NCCc1ccccn1 | inactive: -10.6% | –
36 | Cc1ccc(S(=O)(=O)N2CCN(S(=O)(=O)N3CCCCC3)CC2)cc1C | inconclusive: 10.3% [activator] [at 46.1 µM] | –
37 | O=C(O)c1cccc(NC(=S)N/N=C/c2cccc(O)c2)c1 | – | inconclusive: 2.24 µM [inhibitor, partial curve, poor fit]
38 | COc1ccc(-c2ccc(=O)n(CC(=O)NCCc3ccccc3)n2)cc1 | inactive: -9.37% [at 46.1 µM] | –
39 | CCOc1ccc(C(=O)c2cn(CC(=O)Nc3cc(OC)ccc3OC)c3cc(OC)c(OC)cc3c2=O)cc1 | inactive: 6.61% [at 46.1 µM] | –
40 | CCOc1ccc(NC(=O)NCCN2CCN(c3ccccc3F)CC2)cc1 | – | inconclusive: 2.82 µM [inhibitor, single point]
41 | O=C(Nc1ccc(OC(=O)c2ccncc2)cc1)c1ccncc1 | inactive: 20.2% | –
42 | O=C1OC(N2CCN(C(=O)C3CCCO3)CC2)c2ccccc21 (stereo not given) | – | inconclusive: 1.16 µM [activator, single point]
43 | Cc1ccc(C)c(NC(=O)CSc2cccc3cccnc23)c1 | inactive: 4.49% | –
44 | Cc1cc(=O)oc2cc(OCC(=O)Nc3nnc(C(C)C)s3)ccc12 | inactive: 8.56% | –
45 | CCN(CC)S(=O)(=O)c1ccc(OC)c(NC(=S)Nc2cccc(C)c2C)c1 | inactive: -5.03% | –

Entries of single compounds, quoted from the list:
NC(=S)NN=C1CCCCCCCCCC1 is entered as activity change, negative = inhibition: inactive: -15.9%
Cc1ccc(C)c(NC(=O)CSc2cccc3cccnc23)c1 is entered as activity change, negative = inhibition: inactive: 4.49%
Nc1nc(Nc2ccccc2)nc2ccccc12 is entered as Potency: inconclusive: 31.6 µM [inhibitor, single point]
